Entries after “also recorded” stand apart in the source; their conditions may differ. Like-named read-outs stand apart in the source and are kept apart here.
Key:
[1] = tested on: HOTTIP expression in MDA-MB-231 cells
[2] = tested on: FOXD3-AS1 expression in MDA-MB-231 cells
[3] = MDA-MB-231, 10 μM, one-day treatment
[4] = MDA-MB-231, 10 μM, three-day treatment
[5] = MDA-MB-231, 10 μM, one/three days

SMILES | effect on HOTTIP expression [1, 3] | effect on HOTTIP expression [1, 4] | effect on FOXD3-AS1 expression [2, 5] | effect on FOXD3-AS1 expression ([2]; MDA-MB-231, 1/5/10 μM, three days) | effect on HOTTIP expression ([1]; MDA-MB-231, 1 μM, three days)
CNC(=O)c1cc(C2(C#N)CCC2)cc(NS(=O)(=O)c2cc(Br)cc(Cl)c2O)c1O [7k, 3-((5-Bromo-3-chloro-2-hydroxyphenyl)sulfonamido)-5-(1cyanocyclobutyl)-2-hydroxy-N-methylbenzamide] | no effect could be observed | down-regulation of HOTTIP after three days of treatment; also recorded: able to reduce HOTTIP expression but longer incubation times of three days were required to observe the effect; also recorded: able to downregulate HOTTIP | did not provide significant changes; also recorded: did not influence FOXD3-AS1 expression; also recorded: could not | not sensitive to the treatment of molecule 7k in the concentration range used | –
CN1CCN(c2ccc(-c3cccc(CN4CCOCC4)c3)cc2NC(=O)c2c[nH]c(=O)cc2C(F)(F)F)CC1 [OICR-9429] | small but significant effect | able to reduce HOTTIP expression after three days of treatment | could downregulate FOXD3-AS1 | – | not enough to reduce the expression of HOTTIP significantly

— publication PMC10880924, “Small molecule WDR5 inhibitors down-regulate lncRNA expression” (RSC Medicinal Chemistry, 2024)
